These are yes or no findings as the source states them, for the method shown. Some binding calls cover weakened binding; strength is not graded here.
Assays:
[1] = target: T1, human CD3 on human T cells (human, UniProt P07766 23-207); test: flow cytometry on human primary T cells, goat anti-human IgG AF647 detection, MFI (AF647)
[2] = target: T1, human CD3 on human T cells; test: flow cytometry on human primary T cells
[3] = target: T1, human CD3 on human T cells; test: flow cytometry on human primary T cells, goat anti-mouse IgG AF647 detection, MFI (AF647)

Amino acid sequences for entries named in this document (tags omitted). Residues count along the entry.
UniProt P07766, residues 23-207: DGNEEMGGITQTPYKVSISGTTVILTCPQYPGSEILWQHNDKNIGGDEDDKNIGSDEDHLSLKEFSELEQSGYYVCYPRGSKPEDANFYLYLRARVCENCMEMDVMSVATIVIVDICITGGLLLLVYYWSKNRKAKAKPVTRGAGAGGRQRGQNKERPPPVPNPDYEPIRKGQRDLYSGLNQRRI

Binder	binding [1]	binding [2]	binding [3]
humanized antibody AB611 (antibody, human IgG4 S228P, kappa, V domains shown, Humanized from AP831 CDRs) VH: EVQLVQSGAEVKKPGSSVKVSCKASGYTFTNNYIHWVKEKPGQGLEWIGWIYPGDGTTKYNEKFKGKTTLASDKSTNTAYMELSSLRSEDTAIYFCTRNNNYYFDYWGQGTTVTVSS VL: DIVMTQSPDSLAVSLGERATMNCKSSQSLFNSRTRKNYLAWYQQKPGESPKLLIYWASTRESGVPDRFSGSGSGTDFTLTISSLQAEDVAVYYCKQSFILRTFGGGTKVEIKR	binds	binds	–
humanized antibody AB614 (antibody, human IgG4 S228P, kappa, V domains shown, Humanized from AP591 CDRs) VH: EVQLLESGGGLVQPGGSLKLSCAASGFTFNTYAMNWVRQAPGKGLEWVGRIRSKINNYATYYADSVKDRFTISRDDSKNTAYLQMNNLKTEDTAMYYCVRHDNFYGSTYSWFADWGQGTLVTVSS VL: ELVVTQEPSLTVSPGGTVTLTCRSSTGVVTTSNYANWVQEKPDHLFTGLIGATNYRAPGTPARFSGSLLGGKAALTLSGVQPEDEAIYFCVLWYSNHWVFGGGTKLTVLR	binds	binds	–
murine monoclonal antibody AP191 (antibody, mouse IgG1, V domains shown) VH: QVQLQQSGPELVKPGASMKMSCKASGYTFTSYYIHWVKQRPGQGLEWIGWIYPGDGSTKFNEKFRGKTSLTADKSSNTAYMFLSSLTSEDSAIYFCARDGYSLYYFEFWGHGTTLTVSS VL: DIVMSQSPSSLAVSAGETVTMSCKSSQSLLNSRTRKTYLAWYQQKPGQSPKLLIYWASTRDSGVPDRFTGSGSGTDFTLTISSVQAEDLAVYYCVQSYTLRTFGGGTKLEIK	–	binds	binds

The remaining lines, values ahead:

binding [1]	binding [2]	binding [3]	Binder
–	binds	binds	murine monoclonal antibody AP591 (antibody, mouse IgG1, V domains shown) VH: EVQLVESGGGLVQPKGSLKLSCAASGFTFNTYAMNWVRQAPGKGLEWVGRIRSKINNYATYYADSVRDRFTISRDDSQSMLYLQMSNLKTEDTAMYYCVRHDNFYGSTYSWFADWGQGTLVTVSA VL: AVVTQESALTTSPGETVTLTCRSSTGVVTTSNYANWVQEKPDHLFTGLIGATNYRVPGVPARFSGSLIGDKAALTITGAQTEDEAIYFCVLWYSNHWVFGGGTKLTVL
–	binds	binds	murine monoclonal antibody AP831 (antibody, mouse IgG1, V domains shown) VH: QVQLQQSGPELVKPGTSVKMSCKASGYTFTNNYIHWVKEKPGEGLEWIGWIYPGDGTTKYNEKFKGKTTLASDKSSNTVYMFLSSLTSEDSAIYFCTRNNNYYFDYWGQGTTLTVSS VL: DIVMSQSPSSLAVSAGEKVTMNCKSSQSLFNSRTRKNYLAWYQQKPGQSPKLLIYWASTRESGVPDRFTGSGSGTDFTLTISSVQAEDLALYYCKQSFILRTFGGGTKLEIK
